In publication PMC3035606, “Structural Basis of Response Regulator Dephosphorylation by Rap Phosphatases” (PLoS Biology, 2011):
Results are given in words; binding and its absence hold for the method and conditions named.

Key:
Spo0F (B. subtilis) = Spo0F (B. subtilis) (UniProt P06628); test: SEC; gel filtration on Superdex 200 16/70 in buffer E (20 mM Tris-HCl (pH 8.0), 50 mM KCl, 5 mM MgCl2), 4°C; both purified
[1] = target: selenomethionyl Spo0F-D54E (B. subtilis) (UniProt P06628); test: as above

B1: Spo0F (natural protein, B. subtilis)
chain: GSMMNEKILIVDDQYGIRILLNEVFNKEGYQTFQAANGLQALDIVTKERPDLVLLDMKIPGMDGIEILKRMKVIDENIRVIIMTAYGELDMIQESKELGALTHFAKPFDIDEIRDAVKKYLPLKSN
notes: two heterologous N-terminal residues (Gly-Ser) derived from the thrombin cleavage signal; Spo0F, B. subtilis strain 168, residues 1-124; The methods name the vector pETDuet-1 but purify over glutathione resin and remove a GST tag; also called Spo0FA; Spo0FB; source: E. coli BL21(DE3), purified (glutathione resin, thrombin, Source 15Q and HiTrap Heparin flow-through, Superdex 200); …
In the case of B1, the binding (Spo0F (B. subtilis)) is reported as “no binding”.

B2: selenomethionyl Spo0F-D54E (natural protein, B. subtilis)
chain: GSMMNEKILIVDDQYGIRILLNEVFNKEGYQTFQAANGLQALDIVTKERPDLVLLEMKIPGMDGIEILKRMKVIDENIRVIIMTAYGELDMIQESKELGALTHFAKPFDIDEIRDAVKKYLPLKSN
modifications: selenomethionyl (selenomethionine derivatized)
notes: two heterologous N-terminal residues (Gly-Ser) derived from the thrombin cleavage signal; purified in an identical manner to Spo0F; Spo0F, B. subtilis strain 168, residues 1-124, with D54E; Used for SAD phasing; PDB 3Q15 holds the parent (wild-type Spo0F); source: E. coli BL21(DE3), purified as Spo0F (buffer D with 120 mM MgCl2); not shown: GST, N-terminal, cleaved
With B2 the binding [1] was “no binding”.
